In patent publication US20080064675A1, “Use of Aromatic flavoring agents with high melting point as solubilizing agents” (priority 2005, published 2008):
The name of at least one read-out is uncertain.

Experiment: trans-anethole and vanillin in compositions of modafinil (Example 3)
Type: physicochemical
Details: heated to 60° C.
Experimental: 200 mg of modafinil were weighted in two test tubes (A and B). 2 mL of benzyl alcohol were added to test tube A and 200 mg of vanillin, 2 mL of anethole and 2 mL of benzyl alcohol were added to test tube B. The test tubes were stirred and heated to 60° C. Further, the tubes were cooled at room temperature.

**Q.** What does the source list for `NC(=O)C[S+]([O-])C(c1ccccc1)c1ccccc1` (centres unmarked) [modafinil]?
**A.** solubilization (tube A: 200 mg in 2 mL benzyl alcohol): completely solubilized; solubilization (tube B: 200 mg with 200 mg vanillin, 2 mL anethole and 2 mL benzyl alcohol): completely solubilized
